Plain letter strings leave the end groups untold.
Experiment: peptide made by a vendor
Conditions: whole synthesis, HPLC

## FPQYLQYPY
  purity (crude or final not stated): 98%
